The assay deals with T1, REEP4-TurboID-HA (human) (UniProt Q9H6H4).
T1 sequence: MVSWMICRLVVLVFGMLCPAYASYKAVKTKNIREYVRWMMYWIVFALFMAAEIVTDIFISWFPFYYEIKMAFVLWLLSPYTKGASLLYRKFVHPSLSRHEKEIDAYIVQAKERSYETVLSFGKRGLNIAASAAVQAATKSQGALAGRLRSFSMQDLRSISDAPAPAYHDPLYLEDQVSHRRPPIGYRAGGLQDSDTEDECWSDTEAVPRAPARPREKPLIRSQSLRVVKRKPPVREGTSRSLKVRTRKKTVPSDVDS
The assay can be described thus: proximity labelling.

Results are given in words; binding and its absence hold for the method and conditions named. Binding seen in cells or lysates may run through a third protein. Here binding means that the protein was enriched with, or labelled near, the bait; the list need not be complete. Tags and fused reporters may be left off the sequences shown.

This passage reports binding results from publication doi:10.1101/2020.09.30.320333.

B1: Rab3GAP2 (protein, UniProt Q9H2M9 1-1393)
chain: MACSIVQFCYFQDLQAARDFLFPHLREEILSGALRRDPSKSTDWEDDGWGAWEENEPQEPEEEGNTCKTQKTSWLQDCVLSLSPTNDLMVIAREQKAVFLVPKWKYSDKGKEEMQFAVGWSGSLNVEEGECVTSALCIPLASQKRSSTGRPDWTCIVVGFTSGYVRFYTENGVLLLAQLLNEDPVLQLKCRTYEIPRHPGVTEQNEELSILYPAAIVTIDGFSLFQSLRACRNQVAKAAASGNENIQPPPLAYKKWGLQDIDTIIDHASVGIMTLSPFDQMKTASNIGGFNAAIKNSPPAMSQYITVGSNPFTGFFYALEGSTQPLLSHVALAVASKLTSALFNAASGWLGWKSKHEEEAVQKQKPKVEPATPLAVRFGLPDSRRHGESICLSPCNTLAAVTDDFGRVILLDVARGIAIRMWKGYRDAQIGWIQTVEDLHERVPEKADFSPFGNSQGPSRVAQFLVIYAPRRGILEVWSTQQGPRVGAFNVGKHCRLLYPGYKIMGLNNVTSQSWQPQTYQICLVDPVSGSVKTVNVPFHLALSDKKSERAKDMHLVKKLAALLKTKSPNLDLVETEIKELILDIKYPATKKQALESILASERLPFSCLRNITQTLMDTLKSQELESVDEGLLQFCANKLKLLQLYESVSQLNSLDFHLDTPFSDNDLALLLRLDEKELLKLQALLEKYKQENTRTNVRFSDDKDGVLPVKTFLEYLEYEKDVLNIKKISEEEYVALGSFFFWKCLHGESSTEDMCHTLESAGLSPQLLLSLLLSVWLSKEKDILDKPQSICCLHTMLSLLSKMKVAIDETWDSQSVSPWWQQMRTACIQSENNGAALLSAHVGHSVAAQISNNMTEKKFSQTVLGADSEALTDSWEALSLDTEYWKLLLKQLEDCLILQTLLHSKGNTQTSKVSSLQAEPLPRLSVKKLLEGGKGGIADSVAKWIFKQDFSPEVLKLANEERDAENPDEPKEGVNRSFLEVSEMEMDLGAIPDLLHLAYEQFPCSLELDVLHAHCCWEYVVQWNKDPEEARFFVRSIEHLKQIFNAHVQNGIALMMWNTFLVKRFSAATYLMDKVGKSPKDRLCRRDVGMSDTAMTSFLGSCLDLLQILMEADVSRDEIQVPVLDTEDAWLSVEGPISIVELALEQKHIHYPLVEHHSILCSILYAVMRFSLKTVKPLSLFDSKGKNAFFKDLTSIQLLPSGEMDPNFISVRQQFLLKVVSAAVQAQHSATKVKDPTEEATPTPFGKDQDWPALAVDLAHHLQVSEDVVRRHYVGELYNYGVDHLGEEAILQVHDKEVLASQLLVLTGQRLAHALLHTQTKEGMELLARLPPTLCTWLKAMDPQDLQNTEVPIATTAKLVNKVIELLPEKHGQYGLALHLIEAVEAISLPSL
In the case of B1, the binding result is listed as “binds”.
